Patent publication US7985753B2, “Substituted pyrazolo[1,5-A]pyrimidines as metabotropic glutamate receptor modulators” (MERZ PHARMA GmbH & Co. KGaA, priority 2006, dated 2011)
At least one compound was matched to its structure with a doubt left.

The chains behind the UniProt entries cited, without tags or fusion partners. Residues count along the entry.
UniProt P41594, 21-1212: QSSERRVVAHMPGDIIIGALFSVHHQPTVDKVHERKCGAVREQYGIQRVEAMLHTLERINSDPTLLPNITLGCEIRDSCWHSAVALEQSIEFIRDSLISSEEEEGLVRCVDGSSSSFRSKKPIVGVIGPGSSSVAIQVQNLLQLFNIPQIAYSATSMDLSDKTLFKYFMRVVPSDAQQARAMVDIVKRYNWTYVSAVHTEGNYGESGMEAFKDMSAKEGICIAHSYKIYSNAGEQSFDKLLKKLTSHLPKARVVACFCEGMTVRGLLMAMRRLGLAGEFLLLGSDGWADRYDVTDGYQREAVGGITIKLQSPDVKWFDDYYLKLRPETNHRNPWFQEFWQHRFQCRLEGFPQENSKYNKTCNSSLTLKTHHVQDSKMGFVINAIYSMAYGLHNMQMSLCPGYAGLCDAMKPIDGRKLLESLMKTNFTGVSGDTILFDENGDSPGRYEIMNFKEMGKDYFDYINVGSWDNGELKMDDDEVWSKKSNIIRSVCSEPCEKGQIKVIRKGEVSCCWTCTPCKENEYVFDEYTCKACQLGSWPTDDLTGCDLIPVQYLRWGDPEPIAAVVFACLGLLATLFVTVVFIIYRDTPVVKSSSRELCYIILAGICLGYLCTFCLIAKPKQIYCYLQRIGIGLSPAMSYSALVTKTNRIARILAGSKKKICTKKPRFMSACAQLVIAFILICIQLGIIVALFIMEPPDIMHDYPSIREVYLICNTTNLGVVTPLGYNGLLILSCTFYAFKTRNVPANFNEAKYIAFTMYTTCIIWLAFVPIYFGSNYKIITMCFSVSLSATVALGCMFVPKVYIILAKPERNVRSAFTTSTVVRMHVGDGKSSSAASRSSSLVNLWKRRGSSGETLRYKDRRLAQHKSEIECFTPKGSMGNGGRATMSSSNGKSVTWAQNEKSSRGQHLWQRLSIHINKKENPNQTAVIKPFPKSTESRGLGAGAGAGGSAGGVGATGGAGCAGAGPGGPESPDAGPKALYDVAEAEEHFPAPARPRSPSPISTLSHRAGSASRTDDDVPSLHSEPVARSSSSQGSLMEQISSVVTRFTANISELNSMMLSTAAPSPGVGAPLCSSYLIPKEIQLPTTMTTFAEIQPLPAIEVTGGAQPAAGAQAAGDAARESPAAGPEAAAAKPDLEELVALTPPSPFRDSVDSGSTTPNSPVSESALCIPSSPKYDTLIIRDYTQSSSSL

Target: metabotropic glutamate receptor (mGluR5) (Homo sapiens, UniProt P41594)
Test: Activity as mGluR5 modulator, test not specified

In the case of `O=C(c1cc2ncc(Br)cn2n1)N1CCc2ccccc2C1` [Example 28, (6-Bromo-pyrazolo[1,5-a]pyrimidin-2-yl)-(3,4-dihydro-1H-isoquinolin-2-yl)-methanone], the “activity as metabotropic glutamate receptor (mGluR5) modulator” value is reported as “more limited activity” and the selectivity is reported as “reduced selectivity”.
